The text below walks through data of paper PMC10611716.

Results are given in words; binding and its absence hold for the method and conditions named. In cells and extracts the contact can be indirect. A yes stands for co-enrichment or nearness to the bait. Other partners may have been found. Where a sequence is shown, tags or fusion partners need not be part of it.

The target of this assay is T1, Myc-tagged Drosophila Naa30A (CG11412) (Drosophila melanogaster) (UniProt Q95RC0).
T1 sequence: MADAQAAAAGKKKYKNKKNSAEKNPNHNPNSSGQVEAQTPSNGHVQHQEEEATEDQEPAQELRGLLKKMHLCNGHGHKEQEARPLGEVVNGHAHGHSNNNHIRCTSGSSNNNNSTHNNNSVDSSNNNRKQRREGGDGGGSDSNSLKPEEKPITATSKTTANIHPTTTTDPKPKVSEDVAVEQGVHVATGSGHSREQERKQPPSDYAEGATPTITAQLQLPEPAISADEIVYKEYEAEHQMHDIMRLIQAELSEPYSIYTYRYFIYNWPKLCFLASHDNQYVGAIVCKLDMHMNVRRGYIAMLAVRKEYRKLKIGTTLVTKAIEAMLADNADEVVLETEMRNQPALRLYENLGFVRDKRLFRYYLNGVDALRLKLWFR
Put plainly: affinity purification with mass spectrometry; immunoprecipitation with an anti-Myc antibody from Drosophila embryos expressing Myc-tagged Naa30A (UAS/Gal4, nanos-Gal4 driver), mass spectrometry.

B1: Drosophila orthologue of NAA38/Mak31 (CG31950) (protein, UniProt Q8IPZ7 1-121)
chain: MTELSITGQQVMPPPACTPPEPFRITTNAPHQMNDASLTPGRRKLQKWLGRVLRIVITDGRVLVGFFNCTDRDANIVLSMCAEYLVEGQEPRLLGNVMVPGQHIVSLSIDEPDPQSSLLVQ
For B1, the binding result was “binds”.

B2: Drosophila orthologue of NAA35/Mak10 (CG4065) (protein, UniProt Q9W1A2 1-784)
chain: MYPSTLPAEADPSTMNGSSVAEPPDFQAATAAAAAAARASSLEQDEWSVGECGFLDPDVQRTMRSGSAAEDITQYPMHGWVDVTKEFHDACAELQPGELAQDMLFGLFEAMSAIEIMDPKMDVGMGFDKQDLPPPSFEAAIATGAIKLDDLTPSELIGIYDALFSCLVSWLEGNSMDQVLFTCLYLHAPAQIKDKALRVFCTAVRNLIVVIKKIIAVAAVNEEEDFQLYGNSALLAAEKAQPATVYSSLKDVEDELIRKCKKLTSTEDWMAVVHRLRFMRHLFQVIYHVEQMASNDTVDDKVDIYKILLVASEMLPGIRNTLDRGTQPEKGSDAPNPMGFSPRIHDRSQPPAFPRSIKIRDRPSSYQFLEEMISRFKYACKVTKYKDYYSALNFFIEYSKKSGQCILSRSVLQTLFSANMRMAHGKLPMKQFLRHSVQVFNSPPVLNAKHPVAADPKVQQHLENFFRYCINMNTFTQFIRICGFNRARQRDKLARLIENFDTIQVDAARLDSMMNQLANERAMEGNEPMATALKHSTHFSTWVLYNCFRAMLIFLMSGFELELYAVHEFLYIYWYPYEFLIGFLVSALTRTENILLAQEEYAEHQSKTQSGGSGAAKNRKAAKPKKNKKTQRPYRAEIVFYHALLSLCGGMYKAMGALTKDGRVRLPLSKFDNEEIRYNRRFLPFATLTSPPPVSYAEFKNVREHMMRHSVEDLYTYAAKHFDQARNVLESIQNPDQEMLDLLQIARTNFVVMNVLARGHQKEVKRQPEFDFSKHSYFPIIKLK
B2: the binding entry is on record as “binds”.
